The other results are listed elsewhere or left out. The main result of the screen is listed elsewhere. These columns were measured beside it and carry no call. The list favours compounds with an active or inconclusive main result. Potencies come from curve fits of mixed quality, noted in brackets.
Experiment: qHTS Assay to Find Inhibitors of Chronic Active B-Cell Receptor Signaling
Details: ABC-DLBCL IkBa-CBG/CBR reporter, luminescence ratio (green luciferase fused to IkBa over red control in TMD8 lymphoma cells), 4 h
In short: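 TMD8 human ABC-DLBCL cells with doxycycline-inducible IκBα–green luciferase fusion and unfused red luciferase, in 0.5% FBS medium; compounds up to 46 uM, 4 h at 37C. Green/red luminescence ratio, filter-overlap corrected, fitted to concentration-response curves.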

[1] = measured here: CBR red luminescence, cell number
[2] = measured here: IkBa-CBG green luminescence

## Cc1cc(-c2ccn[nH]2)c(C)s1
[1]
  AC50: 1.12 µM [falling, full curve, poor fit]

## CCc1ccc(-n2c(SCC(=O)c3ccc4c(c3)NC(=O)CO4)nc3ccccc3c2=O)cc1
[1]
  AC50: 35.5 µM [rising, single point]

## Cc1ccc(NC(=O)CC2OC(=O)c3ccccc32)cc1S(=O)(=O)N1CCOCC1 (configuration not stated)
[1]
  AC50: 20.6 µM [rising, partial curve, poor fit]

## CCCCc1nc(SCc2ccc([N+](=O)[O-])cc2)n[nH]1
[1]
  AC50: 35.5 µM [rising, single point]

## O=C(N/N=C/C=C/c1ccccc1)c1cccnc1
[1]
  AC50: 8.91 µM [falling, partial curve, poor fit]

## CC(C)c1ccc(-c2csc3ncnc(N4CCN(C)CC4)c23)cc1
[1]
  AC50: 35.5 µM [falling, single point]

## C/C(=N\NC(=O)c1ccccc1)C1C2C=CC(C2)C1(C)C (configuration not stated)
[1]
  AC50: 2.51 µM [falling, full curve]

## C=C(C)COc1ccc(-c2[nH]ncc2-c2ccc(Br)cc2)c(O)c1
[1]
  AC50: 20.6 µM [rising, partial curve, poor fit]

## O=C(CNC(=O)c1ccccc1Br)N/N=C/c1cccs1
[1]
  AC50: 6.31 µM [falling, full curve, poor fit]

## CCOc1ccc(Nc2nc3ccccc3n3nnnc23)cc1
[1]
  AC50: 0.501 µM [falling, full curve, poor fit]

## Cc1sc2ncnc(N3CCC(C(=O)Nc4ccc(S(N)(=O)=O)cc4)CC3)c2c1C
[1]
  AC50: 16.4 µM [falling, single point]

## CC1CCC(C(C)C)C(OCC(O)CNC(C)c2ccccc2)C1 (configuration not stated)
[1]
  AC50: 15.8 µM [falling, single point]

## O=C(CNc1ccccc1F)Nc1cccc2ccccc12
[1]
  AC50: 0.562 µM [falling, full curve]

## Cc1cc(C)n(-c2nnc3n2N=C(c2c[nH]c4ccccc24)CS3)n1
[2]
  AC50: 29.1 µM [falling, single point]

## CCn1c(C)nc2cc(C(=O)NNC(=S)NC(=O)c3ccc(OC)cc3)ccc21
[1]
  AC50: 35.5 µM [rising, single point]

## CC(C)COc1cccc(C(=O)NC(=S)NCc2cccnc2)c1
[1]
  AC50: 14.6 µM [falling, single point]

## CC(C)C[C@H](NC(=O)[C@@H]1Cc2ccccc2CN1)C(=O)Nc1ccc(C(C)C)cc1
[1]
  AC50: 0.501 µM [rising, full curve, poor fit]

## Cc1oc(-c2ccc3c(c2)OCCO3)cc1C(=O)NC(Cc1ccccc1)C(=O)O (configuration not stated)
[2]
  AC50: 10 µM [rising, partial curve, poor fit]

## Cc1ccc(-c2csc(N3CCC[C@@H]3C(=O)NCCn3c(C(F)(F)F)nc4ccccc43)n2)cc1
[1]
  AC50: 8.91 µM [falling, partial curve, poor fit]

## CCOc1ccccc1NC(=O)c1nc(S(=O)(=O)Cc2ccccc2)ncc1Cl
[1]
  AC50: 10 µM [falling, partial curve, poor fit]

## Cc1cccc2cc(C(c3nnnn3Cc3ccccc3)N3CCN(c4ccccc4)CC3)c(=O)[nH]c12 (configuration not stated)
[1]
  AC50: 0.291 µM [rising, full curve]

## CC(=O)c1cccc(N(CC(=O)N2CCCCC2)S(C)(=O)=O)c1
[1]
  AC50: 0.00461 µM [falling, full curve, poor fit]

## CC(C)Cc1nnc(NC(=O)c2ccc3c(c2)NC(=O)C(C)S3)s1 (configuration not stated)
[1]
  AC50: 7.31 µM [rising, partial curve, poor fit]

## CCOc1ccc2c(c1)C(C)=CC(C)(C)N2C(=O)Nc1ccccc1
[1]
  AC50: 18.4 µM [falling, single point]

## COc1ccc2oc(C(=O)Nc3ccc(S(=O)(=O)N(C)C4CCN(C)CC4)cc3)c(C)c2c1
[1]
  AC50: 20 µM [falling, partial curve, poor fit]

## COc1ccccc1CNC(=O)/C=C/c1ccc(S(=O)(=O)N2CCOCC2)cc1
[1]
  AC50: 0.631 µM [rising, partial curve, poor fit]

## O=C(O)CCN1C(=O)CC2(CCCCC2)C1=O
[1]
  AC50: 23.1 µM [rising, partial curve, poor fit]

## CC(=O)c1cccc(NC(=O)C(OC(=O)/C=C/c2ccc3c(c2)OCO3)c2ccccc2)c1 (configuration not stated)
[1]
  AC50: 11.6 µM [rising, partial curve, poor fit]

## Cn1nnnc1Sc1ncnc2scc(-c3ccc(Br)cc3)c12
[1]
  AC50: 3.26 µM [rising, single point]
[2]
  AC50: 5.17 µM [falling, single point]

## O=C(Oc1cc(=O)oc2ccccc12)c1cccnc1Cl
[1]
  AC50: 2.31 µM [falling, partial curve]

## Cc1cccc(N(C(=O)c2snc(C(N)=O)c2N)C(C(=O)NCc2ccccc2)c2ccncc2)c1 (configuration not stated)
[1]
  AC50: 0.562 µM [rising, full curve]

## Cc1cc(-n2c(C)cc(C(=O)COc3cc(F)ccc3[N+](=O)[O-])c2C)no1
[1]
  AC50: 29.1 µM [rising, single point]

## O=C(NC1CCCCCC1)c1ccc([N+](=O)[O-])s1
[1]
  AC50: 29.1 µM [falling, single point]

## O=[N+]([O-])c1ccc(-c2ncc(-c3ccc(Br)cc3)o2)cc1
[1]
  AC50: 1 µM [rising, partial curve]

## Cc1nc2ccccc2c(=O)n1/N=C/c1ccccc1
[1]
  AC50: 35.5 µM [falling, single point]

## CC1CCN(C(=O)COC(=O)c2cc3ccccc3cc2O)CC1
[1]
  AC50: 10 µM [falling, partial curve]

## COC(=O)c1ccccc1NC(=O)Nc1ccc(Br)cn1
[1]
  AC50: 14.1 µM [falling, partial curve, poor fit]

## COc1ccccc1C1C(C(N)=O)=C(C)Nc2nc(CCCO)nn21 (configuration not stated)
[1]
  AC50: 11.2 µM [rising, partial curve, poor fit]

## Cc1ccc2nc(C(=O)O)c(C(=O)O)nc2c1
[1]
  AC50: 29.1 µM [rising, single point]

## COc1cc(C)nc(N2CCC(C(=O)NC3CCCCC3)CC2)n1
[1]
  AC50: 10.3 µM [rising, single point]

## CCOc1cccc2cc(-c3nnc(Nc4ccc(F)c(Cl)c4)s3)c(=O)oc12
[1]
  AC50: 10 µM [falling, partial curve, poor fit]
